PubChem BioAssay AID1259254 – NCATS, 2017

Aim: 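Finding genes that stop cells copying their DNA twice in one cycle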 (primary screen)
Cells: human HCT116 colorectal cancer cells
Reagents: single siRNA against human genes
Duration: 3 days
Measured: 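Nuclei stained with Hoechst and imaged; cell-cycle phase assigned by DNA content; G2 share scaled per plate, non-targeting siRNA 0%, GMNN siRNA 100%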
Scale: G2 robust z-score and G2 cells, % of GMNN control: higher = more G2 cells, more excess DNA replication
Rule for the call: 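An siRNA counts as active if its G2 robust z-score lies at least 5 MADs above the screen median; here such calls match roughly 38% of GMNN control or more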
Here is a random part of about 59,000 reagents. In the full data, about 1,550 (2.6%) got an active call. 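G2 share is only a proxy for re-replication; each gene was hit by three separate siRNAs, and active genes were retested.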 The numbers tell different reagents against one gene apart. Not all columns of the deposit are shown. Not given: the amount of reagent.

CTNNB1 (GeneID 1499) #1 showed G2 robust z-score -0.147; G2 cells, % of GMNN control 1.94; inactive. CTNNB1 (GeneID 1499) #2 scored G2 robust z-score -0.0402; G2 cells, % of GMNN control 2.68; inactive. Depletion of CTNNB1 (GeneID 1499) #3 came out at: G2 robust z-score 1.12; G2 cells, % of GMNN control 10.9; inactive. BDH1 (GeneID 622) #1 gave G2 robust z-score 0.222; G2 cells, % of GMNN control 4.53; inactive. After knock-down of BDH1 (GeneID 622) #2 the results were G2 robust z-score 1.37; G2 cells, % of GMNN control 12.6; inactive. Silencing of BDH1 (GeneID 622) #3 came out at: G2 robust z-score -0.712; G2 cells, % of GMNN control -2.05; inactive.

SNX30 (GeneID 401548) #1 showed G2 robust z-score 0.469; G2 cells, % of GMNN control 6.27; inactive. With knock-down of SNX30 (GeneID 401548) #2, the record shows G2 robust z-score 1.21; G2 cells, % of GMNN control 11.5; inactive. Knock-down of SNX30 (GeneID 401548) #3 gave: G2 robust z-score -0.494; G2 cells, % of GMNN control -0.508; inactive. LILRA5 (GeneID 353514) #1 showed G2 robust z-score -0.397; G2 cells, % of GMNN control 0.173; inactive. Silencing of LILRA5 (GeneID 353514) #2 came out at: G2 robust z-score 0.718; G2 cells, % of GMNN control 8.02; inactive. Depletion of LILRA5 (GeneID 353514) #3 came out at: G2 robust z-score 0.344; G2 cells, % of GMNN control 5.38; inactive.

For TUBA3C-DT (GeneID 101928697) #1 the deposit lists G2 robust z-score 0.323; G2 cells, % of GMNN control 5.24; inactive. Depletion of TUBA3C-DT (GeneID 101928697) #2 gave: G2 robust z-score 0.0584; G2 cells, % of GMNN control 3.38; inactive. Against TUBA3C-DT (GeneID 101928697) #3 the deposit lists G2 robust z-score -0.0481; G2 cells, % of GMNN control 2.63; inactive. IL6 (GeneID 3569) #1 showed G2 robust z-score 1.06; G2 cells, % of GMNN control 10.4; inactive. With knock-down of IL6 (GeneID 3569) #2, the screen gave G2 robust z-score -0.837; G2 cells, % of GMNN control -2.92; inactive. Depletion of IL6 (GeneID 3569) #3 came out at: G2 robust z-score 1.5; G2 cells, % of GMNN control 13.5; inactive.

Against ZNF281 (GeneID 23528) #1, the values are G2 robust z-score -1.19; G2 cells, % of GMNN control -5.42; inactive. ZNF281 (GeneID 23528) #2 showed G2 robust z-score 1.29; G2 cells, % of GMNN control 12; inactive. Silencing of ZNF281 (GeneID 23528) #3 resulted in: G2 robust z-score 5.29; G2 cells, % of GMNN control 40.2; active. Knock-down of PAX5 (GeneID 5079) #1 came out at: G2 robust z-score -0.882; G2 cells, % of GMNN control -3.24; inactive. PAX5 (GeneID 5079) #2 gave G2 robust z-score -0.254; G2 cells, % of GMNN control 1.18; inactive. For PAX5 (GeneID 5079) #3, the values are G2 robust z-score -0.826; G2 cells, % of GMNN control -2.84; inactive.

FRAT2 (GeneID 23401) #1 gave G2 robust z-score 1.33; G2 cells, % of GMNN control 12.3; inactive. With knock-down of FRAT2 (GeneID 23401) #2, the record shows G2 robust z-score 3.5; G2 cells, % of GMNN control 27.6; inactive. FRAT2 (GeneID 23401) #3 gave G2 robust z-score -0.0884; G2 cells, % of GMNN control 2.35; inactive. With knock-down of CNRIP1 (GeneID 25927) #1, the record shows G2 robust z-score 0.259; G2 cells, % of GMNN control 4.79; inactive. Against CNRIP1 (GeneID 25927) #2 the deposit lists G2 robust z-score -0.567; G2 cells, % of GMNN control -1.02; inactive. After knock-down of CNRIP1 (GeneID 25927) #3, the screen gave G2 robust z-score 0.00579; G2 cells, % of GMNN control 3.01; inactive.

Records listed so far marked active (1):
ZNF281 (GeneID 23528) #3 → G2 robust z-score = 5.29; G2 cells, % of GMNN control = 40.2; call = active
